Assay results from publication doi:10.1101/2025.05.14.654103.
Results are given in words; binding and its absence hold for the method and conditions named. Binding seen in cells or lysates may run through a third protein. These calls come from enrichment with a bait or labelling near it, and not all partners need be listed.

By UniProt entry, the sequences of proteins in these tests, tags left out.
UniProt Q14653: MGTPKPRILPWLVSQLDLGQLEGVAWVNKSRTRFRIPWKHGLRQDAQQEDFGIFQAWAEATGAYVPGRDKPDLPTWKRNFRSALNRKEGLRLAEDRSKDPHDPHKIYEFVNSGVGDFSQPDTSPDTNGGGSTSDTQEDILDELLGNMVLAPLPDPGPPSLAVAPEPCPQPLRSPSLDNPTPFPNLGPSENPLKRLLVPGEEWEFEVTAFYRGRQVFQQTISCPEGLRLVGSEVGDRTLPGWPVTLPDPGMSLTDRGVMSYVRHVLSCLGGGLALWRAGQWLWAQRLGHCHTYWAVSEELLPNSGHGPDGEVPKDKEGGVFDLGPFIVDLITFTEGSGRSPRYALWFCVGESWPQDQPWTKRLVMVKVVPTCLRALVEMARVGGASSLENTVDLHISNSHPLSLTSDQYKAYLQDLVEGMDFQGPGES
UniProt P51114: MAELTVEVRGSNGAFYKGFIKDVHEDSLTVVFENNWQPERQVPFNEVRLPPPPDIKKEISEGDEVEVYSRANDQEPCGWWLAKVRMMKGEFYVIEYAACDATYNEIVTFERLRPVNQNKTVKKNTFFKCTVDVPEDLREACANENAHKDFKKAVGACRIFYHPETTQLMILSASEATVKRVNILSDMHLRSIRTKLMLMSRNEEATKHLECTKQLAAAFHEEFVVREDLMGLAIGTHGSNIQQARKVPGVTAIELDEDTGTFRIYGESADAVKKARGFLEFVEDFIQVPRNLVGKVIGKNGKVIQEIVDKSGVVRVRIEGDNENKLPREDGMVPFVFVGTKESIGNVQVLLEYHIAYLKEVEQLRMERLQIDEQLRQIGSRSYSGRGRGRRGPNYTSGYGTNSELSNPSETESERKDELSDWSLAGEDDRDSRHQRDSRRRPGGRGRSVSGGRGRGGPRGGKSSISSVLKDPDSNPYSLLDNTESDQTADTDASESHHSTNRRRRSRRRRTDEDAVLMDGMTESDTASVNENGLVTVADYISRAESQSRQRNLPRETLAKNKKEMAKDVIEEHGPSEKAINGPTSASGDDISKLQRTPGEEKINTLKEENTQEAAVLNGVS
UniProt Q15717: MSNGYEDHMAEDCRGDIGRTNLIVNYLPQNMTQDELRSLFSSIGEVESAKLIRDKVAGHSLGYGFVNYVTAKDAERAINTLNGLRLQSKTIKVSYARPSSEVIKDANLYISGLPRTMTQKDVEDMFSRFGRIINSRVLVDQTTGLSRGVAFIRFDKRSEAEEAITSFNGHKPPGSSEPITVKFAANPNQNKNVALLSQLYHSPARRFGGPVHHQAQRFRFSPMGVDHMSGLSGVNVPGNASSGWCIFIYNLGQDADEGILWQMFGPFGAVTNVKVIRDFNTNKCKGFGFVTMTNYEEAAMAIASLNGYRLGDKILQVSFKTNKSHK
UniProt P28340: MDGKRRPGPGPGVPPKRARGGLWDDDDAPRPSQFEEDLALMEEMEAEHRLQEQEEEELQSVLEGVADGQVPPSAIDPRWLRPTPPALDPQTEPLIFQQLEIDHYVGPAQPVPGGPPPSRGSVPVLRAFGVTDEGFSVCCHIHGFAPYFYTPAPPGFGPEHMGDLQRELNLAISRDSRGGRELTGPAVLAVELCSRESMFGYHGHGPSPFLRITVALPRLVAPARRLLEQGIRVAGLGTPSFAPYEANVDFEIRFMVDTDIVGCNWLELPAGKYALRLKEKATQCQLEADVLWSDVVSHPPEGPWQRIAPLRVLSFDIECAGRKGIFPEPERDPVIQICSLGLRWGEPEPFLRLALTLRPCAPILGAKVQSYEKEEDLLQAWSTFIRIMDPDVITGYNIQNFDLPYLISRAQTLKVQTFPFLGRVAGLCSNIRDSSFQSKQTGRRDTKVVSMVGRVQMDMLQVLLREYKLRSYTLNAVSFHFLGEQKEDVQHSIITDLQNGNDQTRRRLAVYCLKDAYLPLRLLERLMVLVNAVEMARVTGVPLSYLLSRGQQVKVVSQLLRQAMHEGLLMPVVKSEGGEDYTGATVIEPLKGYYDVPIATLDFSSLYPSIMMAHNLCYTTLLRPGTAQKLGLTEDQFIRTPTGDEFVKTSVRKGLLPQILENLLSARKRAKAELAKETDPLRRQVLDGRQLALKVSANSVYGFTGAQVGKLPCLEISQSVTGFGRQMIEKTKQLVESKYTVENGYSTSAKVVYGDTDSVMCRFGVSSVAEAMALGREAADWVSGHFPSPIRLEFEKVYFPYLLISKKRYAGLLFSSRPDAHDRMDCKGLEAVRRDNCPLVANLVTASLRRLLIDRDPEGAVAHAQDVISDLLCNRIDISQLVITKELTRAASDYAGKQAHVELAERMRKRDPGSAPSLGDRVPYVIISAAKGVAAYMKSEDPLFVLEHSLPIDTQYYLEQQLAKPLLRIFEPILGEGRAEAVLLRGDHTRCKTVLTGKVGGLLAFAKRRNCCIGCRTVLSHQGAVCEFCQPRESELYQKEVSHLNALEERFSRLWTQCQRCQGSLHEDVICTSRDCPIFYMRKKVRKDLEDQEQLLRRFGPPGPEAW

B1: G3BP2 (protein, UniProt Q9UN86 1-482)
chain: MVMEKPSPLLVGREFVRQYYTLLNKAPEYLHRFYGRNSSYVHGGVDASGKPQEAVYGQNDIHHKVLSLNFSECHTKIRHVDAHATLSDGVVVQVMGLLSNSGQPERKFMQTFVLAPEGSVPNKFYVHNDMFRYEDEVFGDSEPELDEESEDEVEEEQEERQPSPEPVQENANSGYYEAHPVTNGIEEPLEESSHEPEPEPESETKTEELKPQVEEKNLEELEEKSTTPPPAEPVSLPQEPPKAFSWASVTSKNLPPSGTVSSSGIPPHVKAPVSQPRVEAKPEVQSQPPRVREQRPRERPGFPPRGPRPGRGDMEQNDSDNRRIIRYPDSHQLFVGNLPHDIDENELKEFFMSFGNVVELRINTKGVGGKLPNFGFVVFDDSEPVQRILIAKPIMFRGEVRLNVEEKKTRAARERETRGGGDDRRDIRRNDRGPGGPRGIVGGGMMRDRDGRGPPPRGGMAQKLGSGRGTGQMEGRFTGQRR
B2: eukaryotic translation initiation factor 2A (protein, UniProt Q9BY44 1-585)
chain: MAPSTPLLTVRGSEGLYMVNGPPHFTESTVFPRESGKNCKVCIFSKDGTLFAWGNGEKVNIISVTNKGLLHSFDLLKAVCLEFSPKNTVLATWQPYTTSKDGTAGIPNLQLYDVKTGTCLKSFIQKKMQNWCPSWSEDETLCARNVNNEVHFFENNNFNTIANKLHLQKINDFVLSPGPQPYKVAVYVPGSKGAPSFVRLYQYPNFAGPHAALANKSFFKADKVTMLWNKKATAVLVIASTDVDKTGASYYGEQTLHYIATNGESAVVQLPKNGPIYDVVWNSSSTEFCAVYGFMPAKATIFNLKCDPVFDFGTGPRNAAYYSPHGHILVLAGFGNLRGQMEVWDVKNYKLISKPVASDSTYFAWCPDGEHILTATCAPRLRVNNGYKIWHYTGSILHKYDVPSNAELWQVSWQPFLDGIFPAKTITYQAVPSEVPNEEPKVATAYRPPALRNKPITNSKLHEEEPPQNMKPQSGNDKPLSKTALKNQRKHEAKKAAKQEARSDKSPDLAPTPAPQSTPRNTVSQSISGDPEIDKKIKNLKKKLKAIEQLKEQAATGKQLEKNQLEKIQKETALLQELEDLELGI

Biological target: interferon regulatory factor 3 (human (endogenous in LX2)) (UniProt Q14653)
Test: affinity purification with mass spectrometry

Row | binding | Molecule
1 | binds | Fragile X-related protein 1 (from UniProt P51114 1-621)
2 | binds | ELAV like RNA binding protein 1 (from UniProt Q15717 1-326)
3 | binds | DNA polymerase delta catalytic subunit (from UniProt P28340 1-1107)
4 | binds | B1
5 | binds | B2
